Results reported in US20230364104A1, “PHARMACEUTICAL COMBINATION FOR THE TREATMENT OF HUMAN HYPOCHOLINERGIC DISORDERS” (priority 2020, published 2023).

Details: donepezil alone, single increasing oral doses from 5 mg in 5 mg increments, healthy volunteers

For COc1cc2c(cc1OC)C(=O)C(CC1CCN(Cc3ccccc3)CC1)C2 (racemic) [donepezil, (RS)-2-[(1-benzyl-4-piperidyl)methyl]-5,6-dimethoxy-2,3-dihydroinden-1-one], the dose limiting toxicity was “mainly vomiting”.
